# In PubChem BioAssay AID540256 (National Center for Advancing Translational Sciences (NCATS), 2011):
# Out of some 300,000 compounds screened, about 3,700 (1.2%) were called active. This list was built around the results that the source calls inconclusive (neither active nor inactive); the mix of calls is not that of the screen. The call rests on the fitted dose curve; tested in HEK293 cells. Where the call is inconclusive, the potency comes from a doubtful curve fit.
# Assay: qHTS for Inhibitors of binding or entry into cells for Lassa Virus; further: nearly all actives have a fitted effect of over 50% in size
# Conditions: Lassa virus pseudotype entry inhibition, cell reporter; series mostly up to 37.9 µM
# Potency means the concentration at half of the fitted maximal effect.
row,Compound,Potency
1,O=C(CCCC(=O)Nc1cccc(Br)c1)N/N=C/c1cc([N+](=O)[O-])ccc1O,inactive
2,CCOc1ccc(-n2c(=O)c3c4c(sc3n(Cc3cccc(Cl)c3)c2=O)CCCC4)cc1,"inconclusive: 4.47 µM [activator, partial curve, poor fit]"
3,CC1=C(c2ccc(C)c(C)c2)S(=O)(=O)N=C1N1CCN(c2cccc(C(F)(F)F)c2)CC1,inactive
4,Cc1ccc(N(CC(=O)NCCc2ccccc2)C(=O)CCC(=O)Nc2cc(C)ccn2)cc1,"inconclusive: 12.6 µM [inhibitor, single point]"
5,Cc1cccc(-c2cc3nc4c(c(NCc5ccco5)n3n2)CCCC4)c1,"inconclusive: 9.2 µM [inhibitor, partial curve, poor fit]"
6,O=C(O)C1CCCCC1C(=O)NCc1ccccc1 (stereo not given),"inconclusive: 29.1 µM [activator, single point]"
7,COc1ccc(-c2cn3c(C)c(C(=O)NC(C)C)sc3n2)cc1,inactive
8,CCCc1cc(=O)oc2c(C)c3occ(C)c3cc12,inactive
9,CS(=O)c1ccccc1-c1nc(-c2cccc(Cl)c2)no1 (stereo not given),inactive
10,Cc1ccccc1NC(=O)c1cc2c(C)nc3ccccc3c2o1,inactive
11,CCOc1ccc(-n2c(SCc3ccc([N+](=O)[O-])cc3)nnc2-c2ccc(OC)cc2)cc1,"inconclusive: 29.1 µM [inhibitor, single point]"
12,Cc1csc(NC(=O)CS(=O)(=O)c2ccccc2)n1,inactive
13,c1coc(-c2ccnc(-c3ccncc3)n2)c1,inactive
14,O=C(NNS(=O)(=O)c1ccccc1[N+](=O)[O-])c1ccncc1,inactive
15,CCN(C(=O)c1sc2nc3n(c(=O)c2c1C)CCCCC3)c1ccccc1F,"inconclusive: 31.6 µM [activator, single point]"
16,O=C1N(Cc2cccc(Cl)c2)C[C@@H]2C[C@@H](c3cccn3-c3ccccn3)N3CCC[C@@]123,"inconclusive: 35.5 µM [inhibitor, partial curve, poor fit]"
17,O=C(NCCNS(=O)(=O)c1ccc(Cl)cc1)c1cc(OCC(F)(F)F)ccc1OCC(F)(F)F,"inconclusive: 18.3 µM [inhibitor, single point]"
18,CC1CC(C)CN(S(=O)(=O)c2ccccc2[N+](=O)[O-])C1 (stereo not given),inactive
19,CC(C)c1ccc(Nc2nc3ccc(C(=O)c4ccccc4)cc3n3cnnc23)cc1,"inconclusive: 0.316 µM [inhibitor, full curve, poor fit]"
20,Cc1ccccc1-c1noc(N)c1C#N,inactive
21,O=P1(NCCCn2cc[n+](Cc3nc4ccccc4[nH]3)c2)C=C(c2ccccc2)OC(c2ccccc2)=C1,inactive
22,CCN1N=C(c2cc(Cl)sc2Cl)CSC1=O,inactive
23,CCOc1ccccc1NC(=O)Cn1c(=O)n(Cc2ccc(C(=O)NCCCOC)cc2)c(=O)c2ccccc21,inactive
24,COc1ccc(S(=O)(=O)N2CCC(C(=O)Nc3nccs3)CC2)cc1,inactive

# Entries above that contain two or more sulfur atoms (three):
row,Compound,Potency
12,Cc1csc(NC(=O)CS(=O)(=O)c2ccccc2)n1,inactive
22,CCN1N=C(c2cc(Cl)sc2Cl)CSC1=O,inactive
24,COc1ccc(S(=O)(=O)N2CCC(C(=O)Nc3nccs3)CC2)cc1,inactive

# The list goes on.

row,Compound,Potency
1,CN1CCN(CC(=O)N(Cc2c(C#N)c3ccccc3n2C)c2ccccc2)CC1,"inconclusive: 23.1 µM [inhibitor, single point]"
2,O=S(=O)(c1ccccc1)N(CC(O)Cn1c2ccccc2c2ccccc21)c1ccccc1 (stereo not given),"inconclusive: 22.4 µM [inhibitor, single point]"
3,Cn1c2c(c(=O)[nH]c1=O)C(c1ccc(O)cc1)C1=C(N2)c2ccccc2C1=O (stereo not given),"inconclusive: 12.6 µM [inhibitor, partial curve, poor fit]"
4,COc1ccc(OCC(=O)Nc2ccc(N3CCN(C(=O)c4ccccc4)CC3)c(Cl)c2)cc1,"inconclusive: 35.5 µM [inhibitor, single point]"
5,Cn1cc(C(=O)NCc2ccc(F)cc2)c(=O)c2cc(S(=O)(=O)N3CCCCC3)ccc21,inactive
6,COc1cc([N+](=O)[O-])c2nc(C=NNC(N)=S)ccc2c1,inactive
7,CNC(=O)c1cc(C(=O)c2ccc(Cl)cc2)c[nH]1,inactive
8,Cc1ccc(Oc2cnc3ccccc3n2)cc1,"inconclusive: 14.6 µM [activator, partial curve, poor fit]"
9,O=C(Nc1cc(Cl)ccc1-n1cncn1)c1ccc([N+](=O)[O-])s1,"inconclusive: 35.5 µM [inhibitor, single point]"
10,COc1ccc(COC(=O)c2cc([N+](=O)[O-])ccc2N2CCOCC2)cc1F,"inconclusive: 20 µM [inhibitor, partial curve, poor fit]"
11,CCCC12C(=O)C(C)(C(c3ccccc3)=C1c1ccccc1)C1C(=O)N(c3ccc(C)cc3)C(=O)C12 (stereo not given),"inconclusive: 3.26 µM [inhibitor, full curve, poor fit]"
12,Cc1cc(C(=O)Nc2ccc(OCc3ccccc3)cc2)c(C)o1,"inconclusive: 35.5 µM [inhibitor, single point]"
13,COc1ccc(OC)c2[nH]c(=O)c(CCNS(=O)(=O)c3ccccc3)cc12,inactive
14,COc1ccccc1N1CCN(S(=O)(=O)CCNC(=O)c2ccccc2Br)CC1,"inconclusive: 1.26 µM [inhibitor, partial curve, poor fit]"
15,COc1ccc2nc(N=Nc3ccc(N(C)C)cc3)sc2c1,"inconclusive: 5.8 µM [inhibitor, full curve, poor fit]"
16,CCN(CC)c1ccc(/C=N/NC(=O)CNC(=O)c2ccccn2)cc1,inactive
17,CCOC(=O)CNC(=O)CSc1ncnc2c1cnn2-c1ccc(OC)cc1,"inconclusive: 11.2 µM [inhibitor, partial curve, poor fit]"
18,O=C(N/N=C/c1ccccc1OC(=O)c1ccc2c(c1)OCO2)c1ccccc1,"inconclusive: 12.6 µM [activator, single point]"
19,CCOC(=O)C1CN(S(=O)(=O)c2ccc(C)cc2)CCN1S(=O)(=O)c1ccc(C)cc1 (stereo not given),"inconclusive: 29.1 µM [inhibitor, single point]"
20,Cc1nc(N2CCN(c3ccccn3)CC2)c2c(C)c(C(=O)Nc3ccc(F)cc3)sc2n1,"inconclusive: 10 µM [inhibitor, partial curve]"
21,CCCCc1ccc(NC(=O)Cn2cnc3c2c(=O)n(C)c(=O)n3C)cc1,inactive
22,CCCSc1nsc(NC(=O)CC)n1,"inconclusive: 11.2 µM [inhibitor, partial curve, poor fit]"
23,Cn1cc(CN2CCCC(CNC(=O)c3ccc4c(c3)OCO4)C2)c2ccccc21 (stereo not given),inactive
24,CCCCN(C(=O)C1CC(=O)N(c2ccc(OC)cc2OC)C1)c1c(N)n(CC(C)C)c(=O)[nH]c1=O (stereo not given),"inconclusive: 5.62 µM [activator, single point]"

row,Compound,Potency
1,COc1ccc(-c2cc(C(F)(F)F)nc(SCC(=O)NCc3ccc(F)cc3)n2)cc1,"inconclusive: 35.5 µM [activator, single point]"
2,N#C/C(=N\Nc1ccc(Cl)cc1)C(N)=S,"inconclusive: 25.1 µM [inhibitor, partial curve, poor fit]"
3,O=S(=O)(c1cccc(F)c1)N1CCN(c2ncnc3scc(-c4ccc(F)cc4)c23)CC1,"inconclusive: 12.6 µM [inhibitor, single point]"
4,CC(CCc1ccccc1)NC(=O)CN1CCN(c2ccc(O)cc2)CC1 (stereo not given),"inconclusive: 1.26 µM [inhibitor, full curve, poor fit]"
5,CN(C)CCCNc1nc2sc3c(c2c(=O)n1CCc1ccccc1)CCCCC3,"inconclusive: 22.4 µM [inhibitor, partial curve, poor fit]"
6,O=C(c1cnn(-c2nc3ccccc3s2)c1)c1ccccc1O,"inconclusive: 35.5 µM [inhibitor, single point]"
7,O=C(NCCOc1ccc(F)cc1)C1CCC(=O)N(CCN2CCOCC2)C1 (stereo not given),inactive
8,CC1(C)CC(NC(=O)c2ccc(-c3ccc([N+](=O)[O-])cc3)o2)CC(C)(C)N1,"inconclusive: 35.5 µM [inhibitor, single point]"
9,Cc1ccc(OCC(=O)NCCc2c[nH]c3ccccc23)cc1,"inconclusive: 3.98 µM [inhibitor, partial curve, poor fit]"
10,CCCc1n[nH]c2c1C(=O)CC(C)(C)C2,inactive
11,O=[N+]([O-])c1ccc(CN2CCN(c3ccc([N+](=O)[O-])cc3)CC2)cc1,"inconclusive: 1.26 µM [activator, single point]"
12,COc1ccc(CCN2C(=O)CC(NCCc3ccc(S(N)(=O)=O)cc3)C2=O)cc1OC (stereo not given),inactive
13,COc1ccccc1NC(=O)CN1C(=O)C(c2ccc(F)cc2)=NC1(C)C,inactive
14,COc1ccccc1NS(=O)(=O)c1cc(N/C(=N\S(=O)(=O)c2ccccc2)c2ccc(F)cc2)ccc1Cl,"inconclusive: 20.6 µM [inhibitor, single point]"
15,COC(=O)c1ccc(CSc2nc3ccccc3o2)cc1,"inconclusive: 10.3 µM [inhibitor, partial curve]"
16,Cc1c(Cl)cccc1N1CC(c2nc3ccccc3n2Cc2ccccc2F)CC1=O (stereo not given),"inconclusive: 35.5 µM [inhibitor, single point]"
17,CCN(CC(=O)Nc1cccc(OC)c1)c1ncnc2sc(C)c(C)c12,inactive
18,Cc1cccc(N2CCN(C(=O)Nc3ccc(F)cc3)CC2C)c1 (stereo not given),inactive
19,CCOc1ccc(NC(=O)N2CCN(S(C)(=O)=O)CC2)cc1,"inconclusive: 8.91 µM [activator, partial curve, poor fit]"
20,Cc1ccc(NC(=O)COC(=O)C2CC2)c(Br)c1,inactive
21,CN(C)c1oc(-c2ccco2)nc1S(=O)(=O)c1ccc(Br)cc1,inactive
22,Cc1cc(=O)[nH]c2nnc(SCc3cccc(F)c3)n12,inactive

# In another format: entries from further up
row	Compound	Potency
15	COC(=O)c1ccc(CSc2nc3ccccc3o2)cc1	inconclusive: 10.3 µM [inhibitor, partial curve]
16	Cc1c(Cl)cccc1N1CC(c2nc3ccccc3n2Cc2ccccc2F)CC1=O (stereo not given)	inconclusive: 35.5 µM [inhibitor, single point]
